Results from US20250352550A1, “SUBSTITUTED FUROPYRIDINES FOR THERAPEUTIC USE” (MASARYKOVA UNIVERZITA, priority 2022, published 2025).

Chains of the proteins cited; added tags and fusions are not shown. Residues count along the entry.
UniProt P36888, 27-993 limits assumed: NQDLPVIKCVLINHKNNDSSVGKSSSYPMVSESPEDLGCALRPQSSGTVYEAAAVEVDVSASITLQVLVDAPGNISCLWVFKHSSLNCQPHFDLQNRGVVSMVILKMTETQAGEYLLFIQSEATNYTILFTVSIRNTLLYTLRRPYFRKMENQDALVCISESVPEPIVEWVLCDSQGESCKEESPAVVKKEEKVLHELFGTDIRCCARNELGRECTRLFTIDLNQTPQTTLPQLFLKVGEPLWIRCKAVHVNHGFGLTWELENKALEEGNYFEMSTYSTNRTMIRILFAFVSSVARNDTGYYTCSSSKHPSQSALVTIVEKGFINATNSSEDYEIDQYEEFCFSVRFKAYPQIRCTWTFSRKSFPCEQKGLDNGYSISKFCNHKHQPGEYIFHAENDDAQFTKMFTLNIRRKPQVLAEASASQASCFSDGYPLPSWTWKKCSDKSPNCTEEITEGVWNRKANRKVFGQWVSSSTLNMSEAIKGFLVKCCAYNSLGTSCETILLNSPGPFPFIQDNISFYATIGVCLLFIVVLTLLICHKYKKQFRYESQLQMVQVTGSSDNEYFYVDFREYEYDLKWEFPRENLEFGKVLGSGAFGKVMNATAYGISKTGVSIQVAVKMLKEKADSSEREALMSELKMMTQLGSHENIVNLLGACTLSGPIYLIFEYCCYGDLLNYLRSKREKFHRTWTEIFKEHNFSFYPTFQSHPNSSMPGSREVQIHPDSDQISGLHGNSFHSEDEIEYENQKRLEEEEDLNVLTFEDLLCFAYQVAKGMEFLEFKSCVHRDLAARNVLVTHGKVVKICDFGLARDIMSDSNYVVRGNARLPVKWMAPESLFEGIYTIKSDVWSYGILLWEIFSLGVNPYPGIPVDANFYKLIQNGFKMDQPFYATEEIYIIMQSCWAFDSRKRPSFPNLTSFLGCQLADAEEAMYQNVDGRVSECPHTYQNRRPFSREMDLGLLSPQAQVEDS
UniProt Q08345, 19-913 limits assumed: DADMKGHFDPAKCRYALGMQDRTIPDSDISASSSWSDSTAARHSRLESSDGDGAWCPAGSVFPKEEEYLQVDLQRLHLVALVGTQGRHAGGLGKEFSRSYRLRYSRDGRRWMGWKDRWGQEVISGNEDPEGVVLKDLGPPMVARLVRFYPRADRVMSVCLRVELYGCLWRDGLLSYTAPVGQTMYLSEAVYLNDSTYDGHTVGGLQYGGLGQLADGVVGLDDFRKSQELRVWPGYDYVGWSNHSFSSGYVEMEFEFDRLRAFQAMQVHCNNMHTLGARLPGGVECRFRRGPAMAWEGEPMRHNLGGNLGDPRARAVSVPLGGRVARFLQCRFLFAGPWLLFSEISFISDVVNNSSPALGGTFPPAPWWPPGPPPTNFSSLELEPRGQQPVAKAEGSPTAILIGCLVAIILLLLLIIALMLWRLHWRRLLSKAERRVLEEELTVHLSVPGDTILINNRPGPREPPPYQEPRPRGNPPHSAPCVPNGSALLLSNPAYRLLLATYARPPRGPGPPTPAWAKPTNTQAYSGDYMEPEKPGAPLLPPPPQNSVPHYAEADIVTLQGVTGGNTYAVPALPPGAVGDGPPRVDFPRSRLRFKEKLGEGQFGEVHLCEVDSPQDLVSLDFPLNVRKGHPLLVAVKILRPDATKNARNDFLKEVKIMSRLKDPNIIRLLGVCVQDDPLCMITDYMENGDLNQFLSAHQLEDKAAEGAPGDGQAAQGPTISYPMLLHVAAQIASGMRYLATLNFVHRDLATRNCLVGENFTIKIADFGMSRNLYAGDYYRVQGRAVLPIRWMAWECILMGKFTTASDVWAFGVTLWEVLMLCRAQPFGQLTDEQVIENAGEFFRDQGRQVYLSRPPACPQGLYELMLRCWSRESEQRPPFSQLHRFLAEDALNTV

Tests used:
[1] = target: FLT3 (Homo sapiens, UniProt P36888); assay: HotSpot radiometric kinase assay (Reaction Biology), FLT3; conditions: read-out: FLT3 IC50; 4 nM kinase, substrate ABLtide 20 μM, 33P-ATP, 120 minutes at room temperature
[2] = target: DDR1 (Homo sapiens, UniProt Q08345); assay: HotSpot radiometric kinase assay (Reaction Biology), DDR1; type: biochemical; conditions: read-out: DDR1 IC50; 200 nM kinase, substrate IRS1tide 20 μM, 33P-ATP, 120 minutes at room temperature

Q: How did the pIC50 [1] turn out when c1cc(-c2ccncc2)cc(-c2coc3cc(-c4ccc(N5CCNCC5)cc4)cnc23)c1 was run?
A: The pIC50 was 6.63.

Q: What about the pIC50 [2] of the same molecule?
A: The pIC50 was 6.74.

pIC50: −log10 of the molar value. The structures given here were assigned with low confidence; some may be wrong.
